Results are given in words; binding and its absence hold for the method and conditions named. In cells and extracts the contact can be indirect. A yes stands for co-enrichment or nearness to the bait. Other partners may have been found. Sequences can lack the tags named with a protein.
T1: Ref2, TAPS-tagged (native CPF/APT subunit) (yeast) (UniProt P42073)
T1 sequence: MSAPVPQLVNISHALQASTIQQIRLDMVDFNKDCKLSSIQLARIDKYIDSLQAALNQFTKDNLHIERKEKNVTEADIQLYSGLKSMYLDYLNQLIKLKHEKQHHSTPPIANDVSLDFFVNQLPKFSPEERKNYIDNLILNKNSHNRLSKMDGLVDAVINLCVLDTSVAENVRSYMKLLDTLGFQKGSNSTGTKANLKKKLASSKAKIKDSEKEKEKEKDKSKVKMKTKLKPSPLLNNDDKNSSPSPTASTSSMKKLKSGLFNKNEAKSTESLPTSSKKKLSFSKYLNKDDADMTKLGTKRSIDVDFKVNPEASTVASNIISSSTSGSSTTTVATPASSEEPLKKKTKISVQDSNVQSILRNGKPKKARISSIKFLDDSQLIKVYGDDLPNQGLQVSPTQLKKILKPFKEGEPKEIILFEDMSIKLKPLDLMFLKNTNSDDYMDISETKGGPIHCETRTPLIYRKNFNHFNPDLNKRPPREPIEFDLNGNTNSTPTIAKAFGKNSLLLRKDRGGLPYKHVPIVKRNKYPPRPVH


Biological target: T1, Ref2, TAPS-tagged (native CPF/APT subunit) (yeast)
Assay: affinity purification with mass spectrometry; native CPF/APT purified by a tandem affinity purification tag from a yeast strain containing TAPS-tagged Ref2; Coomassie SDS-PAGE; composition analysed by noncovalent nanoESI-MS

binding | Binder
binds | Swd2 (native CPF/APT subunit) (protein, UniProt P36104 1-329) MTTVSINKPNLLKFKHVKSFQPQEKDCGPVTSLNFDDNGQFLLTSSSNDTMQLYSATNCKFLDTIASKKYGCHSAIFTHAQNECIYSSTMKNFDIKYLNLETNQYLRYFSGHGALVNDLKMNPVNDTFLSSSYDESVRLWDLKISKPQVIIPSLVPNCIAYDPSGLVFALGNPENFEIGLYNLKKIQEGPFLIIKINDATFSQWNKLEFSNNGKYLLVGSSIGKHLIFDAFTGQQLFELIGTRAFPMREFLDSGSACFTPDGEFVLGTDYDGRIAIWNHSDSISNKVLRPQGFIPCVSHETCPRSIAFNPKYSMFVTADETVDFYVYDE
binds | Pti1 (native CPF/APT subunit) (protein, UniProt P39927 1-425) MTDPRRRTGRHFLTPENLSSTLQITNLPPEWNQDIITSVVAGSGPVIDIKAKNDPRTGKLTGVLFDYLTSKDCKRAWEILNRIENFPVKIEQIIPPNYKDHLRETANKNSQKQVLQLNRDSYPFEAGLELPFEMVTEVPIPRRPPPPQAANNTNSVSNNTNIQFPDILSKASKHLPSFQDGSIIAPDKISQNLSKIPPLQLIEIISNLKILSNQENIQKSQLESFLDTNSDITISVTQALLEMGFIDYSVVTKVLKSQVGEAPSLLSSNNTSNSNTPVSVIRNNTPLHVPSNEVSNNPNNMPLNVAMPMPMSTPPFIPLPLQQQPFGFAPPGPFMPPAQGPSMGQPVLANQLGQVQQQNISSTEGPSNANKANDSGTINMAKLQLLPENQQDMIKQVLTLTPAQIQSLPSDQQLMVENFRKEYII
binds | Syc1 (native APT subunit) (protein, UniProt Q08553 1-188) MDLPKDKSDRTHQRINLNNSGTDRTNDLYLHIVQTFGCIETTATENATKLLMLGDVEVEISASSVSIEWTQKSMISQTIADSIVIMIIGLCASDKNVLSESELKERNHNVWKIQELQNLFREQFGDSFSIDEGIGKKENVKNGSVTIGKSKATIDFSTMKLIDCNSNPLKGRVESILSIGQKLTTPLC
